These are yes or no findings as the source states them, for the method shown. Binding can be weak; no strength is given. For part of these data: Tags and fused reporters may be left off the sequences shown. For part of these data: In cells and extracts the contact can be indirect.
T1: CRK2 (Cdc2-related kinase 2), yeast two-hybrid fusion (Trypanosoma brucei) (UniProt P54665)
T1 sequence: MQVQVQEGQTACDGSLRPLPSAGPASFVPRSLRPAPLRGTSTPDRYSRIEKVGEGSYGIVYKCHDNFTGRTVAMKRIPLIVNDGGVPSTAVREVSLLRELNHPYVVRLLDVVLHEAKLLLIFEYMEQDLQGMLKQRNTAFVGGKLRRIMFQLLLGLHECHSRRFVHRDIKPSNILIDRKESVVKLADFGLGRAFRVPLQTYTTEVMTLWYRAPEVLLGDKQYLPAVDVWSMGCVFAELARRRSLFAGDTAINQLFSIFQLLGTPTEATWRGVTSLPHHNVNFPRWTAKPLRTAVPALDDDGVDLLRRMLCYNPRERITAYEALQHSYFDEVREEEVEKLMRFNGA

Chains of the proteins cited; added tags and fusions are not shown.
UniProt P54666: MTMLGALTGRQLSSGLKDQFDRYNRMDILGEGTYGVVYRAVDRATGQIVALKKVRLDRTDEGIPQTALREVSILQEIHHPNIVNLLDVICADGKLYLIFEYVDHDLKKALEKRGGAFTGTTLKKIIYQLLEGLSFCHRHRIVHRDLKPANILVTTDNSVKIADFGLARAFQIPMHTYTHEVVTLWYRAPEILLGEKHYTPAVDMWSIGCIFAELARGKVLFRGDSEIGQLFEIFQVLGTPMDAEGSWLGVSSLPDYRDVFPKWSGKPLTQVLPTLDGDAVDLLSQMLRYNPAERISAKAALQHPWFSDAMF

T2: CRK2-3HA (Trypanosoma brucei) (UniProt P54665)
T2 sequence: T1 sequence

B1: CRK2 (Cdc2-related kinase 2), yeast two-hybrid fusion (enzyme, UniProt P54665 1-345)
chain: T1 sequence
B2: CRK2-3HA (enzyme, UniProt P54665 1-345)
chain: T1 sequence
B3: CRK1, yeast two-hybrid fusion (enzyme, UniProt P38973 1-301)
chain: MGSRYERLQKIGEGSYGVVFRARDVTTGTIVAVKRIRLEKEEEGVPCTAIREISILKELRHENIVRLLDVCHSEKRLTLVFECMEMDLKKYMDHVGGDLDAGTIQEFMRSLLSGVRFCHERNVLHRDLKPPNLLISREKELKLADFGLGRAFGIPVKKFTQEVVTLWYRSPDVLLGSTQYGTPVDIWSVGCIFAEMAIGAPLFTGKNDADQLLRIFQFLGTPNRQVWPSMDTYPNSSNMLSRPEFQQTLAATCEEQFQTNPAYAKLGPQGIDLLRWLLRYEPSERLTAAQALEHPYFSVEF
B4: CRK6, yeast two-hybrid fusion (enzyme, UniProt Q8IEW4 1-325)
chain: MSDTLSSKLDDVDADVLRGAYEPVAIIGEGTYGVVFRARGVASGAEFVIKKLRSDKLKEGVPATTLREVTLLHEMSDNPNVVRLLDVLCSKRRVYLVFELLNEDLRSFIRRNYPQPSATASSSVVPLRLVKNFTCQMLHALWRCHQNRIIHRDLKPANVLLGVKKSTRNDGEDSYILKLADFGLARTYEMTLLTYTKEVMTLWYRAPEILLGERHYTPAADVWSVGCIVLEMIVGCPVFRGESNRDQLDRIFYTVGTPTEETWAGVAMMPGYDKATKIYKVAPLHERLPTFDKEAVQFVAFLLQVNPKSRPTIPTILQHPFLQGD

Legend:
[1] = target: T1, CRK2 (Cdc2-related kinase 2), yeast two-hybrid fusion (Trypanosoma brucei); assay: two-hybrid; Gal4 system, AH109 (prey, pGAD) mated with Y187 (bait, pGBK); CRK2 as BD or as AD fusion against each of the eleven CMG subunits as AD or BD fusion; growth on 3DO plates at 30 °C
[2] = target: CYC13 (Cyclin13), yeast two-hybrid fusion (Trypanosoma brucei) (UniProt Q387H2); assay: two-hybrid; Gal4 system, AH109 (prey, pGAD) mated with Y187 (bait, pGBK); CYC13 against the eleven CRKs; growth on 4DO plates at 30 °C for up to 3 days; which partner was bait is not told
[3] = target: T2, CRK2-3HA (Trypanosoma brucei); assay: co-IP; reciprocal: 3HA-tagged CRK precipitated from T. brucei lysate, CYC13-PTP detected; beads not told
[4] = target: Psf3, yeast two-hybrid fusion (Trypanosoma brucei); assay: two-hybrid; Gal4 system, AH109 (prey, pGAD) mated with Y187 (bait, pGBK); CRK2 as BD or as AD fusion against each of the eleven CMG subunits as AD or BD fusion; growth on 3DO plates at 30 °C
[5] = target: Sld5, yeast two-hybrid fusion (Trypanosoma brucei); assay: as above
[6] = target: Mcm3, yeast two-hybrid fusion (Trypanosoma brucei); assay: as above
[7] = target: CYC13-PTP (Trypanosoma brucei); assay: co-IP; PTP-tagged protein precipitated with IgG Sepharose 6 fast flow beads from cleared T. brucei lysate (25 mM Tris-Cl pH 7.6, 100 mM NaCl, 1 mM DTT, 1% NP-40), 1 h at 4 °C; blot with anti-HA and anti-protein A
[8] = target: GST-Mcm3 (Trypanosoma brucei); assay: pull-down; GST fusion on Glutathione Sepharose beads incubated with cleared lysate of T. brucei cells expressing CRK2-3HA, room temperature 30 min; 25 mM Tris-Cl pH 7.6, 100 mM NaCl, 1 mM DTT, 1% NP-40; blot with anti-HA; only the target purified
[9] = target: GST-Sld5 (Trypanosoma brucei); assay: as above

Row | Molecule | binding [1] | binding [2] | further results
1 | Sld5, yeast two-hybrid fusion (Trypanosoma brucei) | binds |  | 
2 | CRK3, yeast two-hybrid fusion (from UniProt P54666 1-311) (enzyme) |  | binds | 
3 | Mcm3, yeast two-hybrid fusion (Trypanosoma brucei) | binds |  | 
4 | Mcm5, yeast two-hybrid fusion (Trypanosoma brucei) | binds |  | 
5 | CYC13-PTP (Trypanosoma brucei) |  |  | binding [3]: binds
6 | Mcm6, yeast two-hybrid fusion (Trypanosoma brucei) | binds |  | 
7 | B1 |  | binds | binding [4]: binds; binding [5]: binds; binding [6]: binds
8 | B2 |  |  | binding [7]: binds; binding [8]: binds; binding [9]: binds
9 | B3 |  | no binding | 
10 | B4 |  | no binding | 

Source: article PMC7876812
